Data taken from publication PMC10040811.
These are yes or no findings as the source states them, for the method shown. In cells and extracts the contact can be indirect. Binding calls can cover weak binding; strength is not graded here. Where a sequence is shown, tags or fusion partners need not be part of it.

Target: T1, GST-rat afadin NN (aa 2-500) (rat) (UniProt O35889)
T1 sequence: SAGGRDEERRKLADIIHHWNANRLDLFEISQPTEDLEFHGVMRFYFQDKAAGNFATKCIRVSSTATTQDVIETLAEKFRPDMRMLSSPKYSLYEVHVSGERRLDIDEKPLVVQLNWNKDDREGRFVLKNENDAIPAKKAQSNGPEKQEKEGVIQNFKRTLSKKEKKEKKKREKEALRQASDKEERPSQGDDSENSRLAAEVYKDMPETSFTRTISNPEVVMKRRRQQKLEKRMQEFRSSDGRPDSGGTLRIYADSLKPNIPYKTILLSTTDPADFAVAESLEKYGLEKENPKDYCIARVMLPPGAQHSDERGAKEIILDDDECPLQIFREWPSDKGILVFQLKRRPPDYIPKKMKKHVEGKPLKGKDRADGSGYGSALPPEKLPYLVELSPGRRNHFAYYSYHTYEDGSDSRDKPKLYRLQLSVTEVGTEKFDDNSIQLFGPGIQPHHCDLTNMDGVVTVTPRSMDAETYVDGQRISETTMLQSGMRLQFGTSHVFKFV
Experiment: pull-down; GST-afadin-NN from E. coli held on glutathione-Sepharose 4B, incubated 3 h with lysate of HEK293 cells expressing V5-MAGUIN-2 in 0.25% DDM in buffer A; blot with the V5 mAb; only the target purified

binding: binds
Substance: V5-tagged full-length MAGUIN-2 (mouse)
